Measured values taken from publication PMC12518693, “Potent Fluorescent Probe for Target‐Engagement Studies of Allosteric Pyruvate Kinase Modulators” (Angewandte Chemie (International Ed. in English), 2025).
Values joined by “and” are separate entries in the source; they are usually repeats but may differ in a detail not shown here. Equal entries are not always repeated.

Experiment: Spectroscopic properties (UV-vis fluorescence spectroscopy)
Assay type: physicochemical
Settings: excitation at 420 nm

Row | Compound | Φf (MeCN) | Φf (Tris-HCl buffer)
1 | CN(C)c1ccc(S(=O)(=O)c2ccc3c(=O)n(Cc4ccccc4)ncc3c2)c2nonc12 [Compound II, 2-Benzyl-6-((7-(dimethylamino)benzo[c][1,2,5]oxadiazol-4-yl)sulfonyl)phthalazin-1(2H)-one] | 5.6% | 
2 | CN(C)c1ccc(S(=O)(=O)c2ccc3c(=O)n(CC(C)(C)C)ncc3c2)c2nonc12 [Compound III, 6-((7-(Dimethylamino)benzo[c][1,2,5]oxadiazol-4-yl)sulfonyl)-2-neopentylphthalazin-1(2H)-one] | 5.3% | 
3 | CN(C)c1ccc(S(=O)(=O)c2ccc3c(=O)n(Cc4cc[nH]n4)ncc3c2)c2nonc12 [Compound IV, 2-((1H-Pyrazol-3-yl)methyl)-6-((7-(dimethylamino)benzo[c][1,2,5]oxadiazol-4-yl)sulfonyl)phthalazin-1(2H)-one] | 1.5% and 5.3% | 5.3% and 1.5%
